Results: patent US11889833B2, “Protoporphyrinogen oxidase inhibitors” (Enko Chem, Inc., priority 2022, dated 2024)
Some entries share one result that the patent states for a list of compounds.

Molecular target: T1, Amaranthus tuberculatum Protoporphyrinogen Oxidase (AmPPO) (Amaranthus tuberculatus, UniProt Q0NZW9)
T1 construct: fused on or other part: C-terminal His tag (pET28b)
T1 sequence (Q0NZW9 1-534): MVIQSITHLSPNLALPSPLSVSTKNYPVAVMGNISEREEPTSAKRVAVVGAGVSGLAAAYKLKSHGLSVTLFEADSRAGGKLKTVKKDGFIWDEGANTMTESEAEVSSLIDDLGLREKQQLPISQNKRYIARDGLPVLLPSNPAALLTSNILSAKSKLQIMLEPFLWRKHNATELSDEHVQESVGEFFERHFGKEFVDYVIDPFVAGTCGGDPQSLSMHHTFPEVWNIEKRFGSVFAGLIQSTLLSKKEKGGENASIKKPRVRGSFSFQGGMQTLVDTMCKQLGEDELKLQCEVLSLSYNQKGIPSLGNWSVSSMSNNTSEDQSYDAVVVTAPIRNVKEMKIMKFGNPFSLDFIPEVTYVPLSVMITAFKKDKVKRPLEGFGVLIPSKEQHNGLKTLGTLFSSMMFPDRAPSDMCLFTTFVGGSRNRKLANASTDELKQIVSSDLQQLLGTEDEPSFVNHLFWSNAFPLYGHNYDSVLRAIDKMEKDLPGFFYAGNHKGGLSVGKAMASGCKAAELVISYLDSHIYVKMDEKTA
Assay: PPO in vitro assay (AmPPO)
Type: biochemical
Settings: AmPPO enzyme, bound less than 100 nM

| SMILES | IC50 |
| --- | --- |
| NS(=O)(=O)c1cc(-c2c(F)c(F)c(F)c(F)c2F)c(F)cc1Cl [Compound 15, 4-chloro-2′,3′,4′,5′,6,6′-hexafluoro-[1,1′-biphenyl]-3-sulfonamide] | < 100 nM |
| O=C(NS(=O)(=O)c1cc(-c2c(F)cc(F)c(F)c2F)c(F)cc1Cl)C1CCSCC1 [Compound 37, N-((4-chloro-2′,3′,4′,6,6′-pentafluoro-[1,1′-biphenyl]-3-yl)sulfonyl)tetrahydro-2H-thiopyran-4-carboxamide] | < 100 nM |
| CCC(=O)NS(=O)(=O)c1cc(-c2c(F)cc(F)c(F)c2F)c(Cl)cc1Cl [Compound 51, N-((4,6-dichloro-2′,3′,4′,6′-tetrafluoro-[1,1′-biphenyl]-3-yl)sulfonyl)propionamide] | < 100 nM |
| C[C@H](Sc1cc(-c2c(F)c(F)c(F)c(F)c2F)c(F)cc1Cl)C(=O)O [Compound 3, (S)-2-((4-chloro-2′,3′,4′,5′,6,6′-hexafluoro-[1,1′-biphenyl]-3-yl)thio)propanoic acid] | < 100 nM |
| CN(C)C(=O)NS(=O)(=O)c1cc(-c2c(F)cc(F)c(F)c2F)c(F)cc1Cl [Compound 66, 4-chloro-N-(dimethylcarbamoyl)-2′,3′,4′,6,6′-pentafluoro-[1,1′-biphenyl]-3-sulfonamide] | < 100 nM |
| COC(=O)CCNC(=O)[C@@H](C)Sc1cc(-c2c(F)c(F)c(F)c(F)c2F)c(F)cc1Cl (single isomer, unassigned) [Compound 6] | < 100 nM |
| CCC(=O)NS(=O)(=O)c1cc(-c2cc(F)c(F)c(F)c2F)c(F)cc1Cl [Compound 53, N-((4-chloro-2′,3′,4′,5′,6-pentafluoro-[1,1′-biphenyl]-3-yl)sulfonyl)propionamide] | < 100 nM |
| O=C(NS(=O)(=O)c1cc(-c2c(F)c(F)c(F)c(F)c2F)c(F)cc1Cl)C(F)(F)F [Compound 24, N-((4-chloro-2′,3′,4′,5′,6,6′-hexafluoro-[1,1′-biphenyl]-3-yl)sulfonyl)-2,2,2-trifluoroacetamide] | < 100 nM |

Same assay, conditions: AmPPO enzyme, bound less than 1 μM

| SMILES | IC50 |
| --- | --- |
| O=C(O)CCC(=O)NS(=O)(=O)c1cc(-c2c(F)cc(F)c(F)c2F)c(F)cc1Cl [Compound 55, 4-((4-chloro-2′,3′,4′,6,6′-pentafluoro-[1,1′-biphenyl])-3-sulfonamido)-4-oxobutanoic acid] | < 1000 nM |
| O=C(NS(=O)(=O)c1cc(-c2c(F)cc(F)c(F)c2F)c(F)cc1Cl)N1CCOCC1 [Compound 58, N-((4-chloro-2′,3′,4′,6,6′-pentafluoro-[1,1′-biphenyl]-3-yl)sulfonyl)morpholine-4-carboxamide] | < 1000 nM |
| O=C(NS(=O)(=O)c1cc(-c2c(F)cc(F)c(F)c2F)c(F)cc1Cl)N1CCC(O)CC1 [Compound 35, N-((4-chloro-2′,3′,4′,6,6′-pentafluoro-[1,1′-biphenyl]-3-yl)sulfonyl)-4-hydroxypiperidine-1-carboxamide] | < 1000 nM |
